The values below come from publication PMC10739246 (ACS Bio & Med Chem Au, 2023).

The series can be described thus: MTT cytotoxicity assay. The note with it: human.

Take `CN[C@@H]1C[C@H]2O[C@@](C)([C@@H]1OC)n1c3ccccc3c3c4c(c5c6ccccc6n2c5c31)C(=O)NC4` [staurosporine]: the IC50 (in general, the midpoint of a concentration-inhibition curve) at 24 h is 19.5 ± 0.97 µM.
